This assay can be described thus: qHTS Assay for Modulators of Lamin A Splicing. The settings on record: HeLa LMNA splicing GFP/RFP minigene ratio, 48 h. The essentials: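 S3 HeLa cells stably expressing lamin A-EGFP splicing minigene plus DsRed2, 600 cells/well, 48 h compound exposure at 37C. Laser-scanning cytometry; analysed as GFP (500-530 nm)/RFP (575-640 nm) total intensity ratio; 0.5% DMSO vehicle.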
For orientation: Quantitative high-throughput screening tests each substance at several concentrations.

[1] abbreviates: measured here: GFP splicing reporter channel.
[2] abbreviates: measured here: RFP viability control channel.

Some of the results follow. Shown are side measurements of this screen, not its main read-out; they come without a call. The list favours compounds with an active or inconclusive main result. The note in brackets gives the kind of curve behind each potency; many fits are weak.

Turning to `Cc1ccc2nc(CN3CCN(C(=O)Nc4ccc(C)c(F)c4)CC3)oc2c1`, under setting [1], the AC50 (in general, the concentration at which the activity in the assay is half-maximal) was 0.0708 µM [rising, full curve, poor fit]. As for `CC(c1n[nH]c(=S)n1-c1ccc(F)cc1)N1CCCCC1` (stereo not given), the AC50 under setting [2] is 2.82 µM [falling, single point]. For the compound `Cc1ccccc1-c1ccc2ncnc(NCc3cccnc3)c2c1`, the AC50 is 20 µM [falling, partial curve, poor fit] under setting [1] and 17.8 µM [falling, partial curve] under setting [2]. In the case of `CCCCN(C)CCCNC(=O)c1cc(-c2cccnc2)nc2ccccc12`, the half-maximal activity concentration (AC50) under setting [1] is 0.01 µM [falling, full curve, poor fit]. Take `O=C(/C=C/c1ccc(Cl)c([N+](=O)[O-])c1)c1cccnc1`: the AC50 under setting [1] is 0.708 µM [falling, full curve, poor fit] and the concentration at half-maximal activity (AC50) under setting [2] was 5.62 µM [falling, single point]. `CCC1=Nc2cc(C(=O)NCc3ccc(C)cc3)ccc2Sc2ccc(C)cc21`: the half-maximal activity concentration (AC50) reads like this: under setting [1], 0.708 µM [rising, full curve, poor fit]; under setting [2], 7.08 µM [rising, partial curve]. Take `N#CCC(CNc1ncc(C(F)(F)F)cc1Cl)OC(=O)c1cccc([N+](=O)[O-])c1` (stereo not given): the concentration at half-maximal activity (AC50) under setting [2] is 35.5 µM [rising, single point].

For the compound `COc1cc2nc(/C=C/c3ccc(N(C)C)cc3)sc2cc1SC`, under setting [2], the AC50 is 20 µM [rising, single point]. As to `O=C1NC(=O)/C(=C/c2ccccc2Oc2ccc(Cl)cc2)S1`, the AC50 under setting [2] was 20 µM [rising, single point]. `Cc1cc(C(=O)CSc2nc(N)cc(N)n2)c(C)n1-c1cccc(C(F)(F)F)c1`: the concentration at half-maximal activity (AC50) under setting [2] is 12.6 µM [rising, partial curve]. Turning to `Cc1ccc(C(=O)CSc2cc(C)nc(SCC(=O)c3ccccc3)n2)cc1`, the half-maximal activity concentration (AC50) under setting [2] is 20 µM [rising, single point]. With `O=C(CSc1nc2ccccc2o1)N1c2ccccc2Sc2ccc(C(F)(F)F)cc21`, under setting [2], the AC50 is 35.5 µM [rising, single point].

Consider `Cc1cc(NN)nc(NS(=O)(=O)c2ccccc2Cl)n1`, for which the AC50 under setting [1] was 6.31 µM [falling, full curve] and the half-maximal activity concentration (AC50) under setting [2] is 5.62 µM [falling, partial curve]. As to `COc1ccc(C2CC3(CC(C)(C)NC(SC)=N3)Oc3cc(O)cc(C)c32)cc1` (stereo not given), under setting [2], the AC50 was 1.78 µM [rising, partial curve]. Take `Cc1ccc(N2CC(C(=O)Nc3ccc(S(=O)(=O)Nc4nccc(C)n4)cc3)CC2=O)cc1` (stereo not given): the AC50 under setting [2] is 10 µM [falling, partial curve, poor fit]. `CCn1c(SCC(=O)c2cc(C)ccc2C)nc2cc(S(=O)(=O)N3CCOCC3)ccc21`: the concentration at half-maximal activity (AC50) under setting [1] was 15.8 µM [rising, single point] and the AC50 under setting [2] was 25.1 µM [rising, partial curve]. As for `Cc1ccc(NC(=O)C(=O)NCC(c2ccc3c(c2)OCO3)N2CCN(c3ccccc3)CC2)cc1` (stereo not given), the concentration at half-maximal activity (AC50) under setting [2] was 0.02 µM [falling, full curve, poor fit]. `C=CCc1cc(C)ccc1OCCOCCC(C(=O)OCC)C(=O)OCC`: the half-maximal activity concentration (AC50) under setting [1] is 1.58 µM [falling, full curve] and the half-maximal activity concentration (AC50) under setting [2] was 1.12 µM [falling, partial curve, poor fit]. With `CC(C)N(Cc1nc(-c2ccc(Cl)cc2)no1)C(=O)c1cccs1`, the half-maximal activity concentration (AC50) under setting [2] is 20 µM [rising, partial curve]. Take `Cc1ccc(C(=O)NNC(=O)c2cc3cc4ccccc4nc3s2)cc1`: the concentration at half-maximal activity (AC50) under setting [2] was 35.5 µM [falling, single point].

`CCCCn1c(SCC(=O)N2CCC(C)CC2)nc2ccsc2c1=O`: under setting [2], the AC50 was 31.6 µM [rising, single point]. Consider `CCN(CC)C(=O)C1CCCN(C(=S)Nc2cccc3ccccc23)C1` (stereo not given), for which, under setting [2], the half-maximal activity concentration (AC50) was 31.6 µM [rising, single point].

As for `Cc1ccc(S(=O)(=O)N2CCC(=O)N(C(COCc3ccc(Cl)cc3)C(C)C)CC2)cc1` (stereo not given), the AC50 under setting [2] was 17.8 µM [rising, single point]. For the compound `O=C(NCCNC(=O)c1cc(OCC(F)(F)F)ccc1OCC(F)(F)F)Nc1cccc(C(F)(F)F)c1`, the AC50 is, setting by setting: under setting [1], 11.2 µM [rising, single point]; under setting [2], 15.8 µM [rising, single point]. Turning to `CC(=O)Nc1c(C(=O)O)oc2ccc(Cl)cc12`, the AC50 under setting [1] was 2.51 µM [falling, partial curve, poor fit].

With `Cc1nnc(N/N=C/c2ccc([N+](=O)[O-])cc2)n1N`, the AC50 under setting [1] was 35.5 µM [falling, single point]. `Cc1cccn2c(=O)c(C=Nc3c(C)n(C)n(-c4ccccc4)c3=O)c(N3CCCC3)nc12`: the AC50 under setting [2] was 11.2 µM [rising, single point]. `Cc1ccc(-n2ncc3c(NCc4ccco4)ncnc32)c(C)c1`: under setting [2], the AC50 was 15.8 µM [rising, single point].

For the compound `COc1ccc(NC(=S)N2CCC(C(O)(c3ccccc3)c3ccccc3)CC2)cc1`, under setting [2], the half-maximal activity concentration (AC50) was 14.1 µM [rising, single point]. Take `CCN(CC)C(=S)SCC(=O)NC12CC3CC(CC(C3)C1)C2`: the AC50 reads like this: under setting [1], 10 µM [rising, partial curve]; under setting [2], 12.6 µM [rising, partial curve].

In the case of `Cc1ccnn1CC(=O)N/N=C/c1cccs1`, the AC50 reads like this: under setting [1], 0.1 µM [rising, full curve, poor fit]; under setting [2], 0.126 µM [rising, full curve, poor fit]. `COc1cccc(-c2cc3nc4c(c(N5CCC6(CC5)OCCO6)n3n2)CCCC4)c1`: the AC50 runs as follows: under setting [1], 17.8 µM [rising, partial curve, poor fit]; under setting [2], 20 µM [rising, single point].

For `CCC(=O)NC(=S)Nc1ccc(NC(=O)c2ccco2)cc1`, the AC50 under setting [1] is 6.31 µM [rising, single point].

For `Cc1ccccc1OCCC(=O)Nc1cccc(S(=O)(=O)Nc2ccccc2Cl)c1`, the AC50 under setting [1] was 25.1 µM [rising, single point] and the AC50 under setting [2] is 25.1 µM [rising, partial curve]. For the compound `N#CC1=C(N)Oc2c(ccc3ccccc23)C1c1ccsc1` (stereo not given), the half-maximal activity concentration (AC50) reads like this: under setting [1], 1.41 µM [falling, full curve]; under setting [2], 1.41 µM [falling, full curve].

As to `CC1(C)Cc2ccccc2-c2n[nH]c(=S)n21`, the half-maximal activity concentration (AC50) under setting [2] was 35.5 µM [falling, single point]. For the compound `CSc1nc(N)c(C#N)c(-c2ccc(Cl)cc2)c1C#N`, the AC50 under setting [2] is 0.0224 µM [falling, full curve, poor fit].

On to `Cc1cccc(CNc2nc(-c3ccc(C(=O)N(C)C)cc3)nc3ccccc23)c1`, for which the AC50 is 22.4 µM [falling, single point] under setting [1] and 11.2 µM [rising, partial curve] under setting [2].

Take `C=CCn1c(SCC(=O)c2cc(C)n(C(C)COC)c2C)nc2sc(C)c(C)c2c1=O` (stereo not given): under setting [2], the AC50 was 31.6 µM [rising, single point]. `O=C(COc1ccccc1)NCC(=O)N/N=C/c1ccco1`: under setting [2], the AC50 is 28.2 µM [falling, partial curve, poor fit]. `CCOc1cc(NC(=S)NC)c(OCC)cc1NC(=O)c1ccco1`: the AC50 under setting [1] is 0.0355 µM [falling, full curve, poor fit] and the concentration at half-maximal activity (AC50) under setting [2] is 0.0224 µM [falling, full curve, poor fit]. Regarding `O=[N+]([O-])c1ccc(NCCCNS(=O)(=O)c2ccccc2)c(Cl)c1`, the AC50 under setting [2] is 7.94 µM [rising, partial curve]. In the case of `CCOc1ccccc1NC1=C(Cl)C(=O)N(c2ccc(OC)cc2)C1=O`, under setting [2], the half-maximal activity concentration (AC50) was 22.4 µM [rising, single point]. As for `CC[C@@]1(O)C(=O)OCc2c1cc1n(c2=O)Cc2cc3c(CN(C)C)c(O)ccc3nc2-1`, the AC50 was 0.794 µM [falling, single point] under setting [1] and 0.251 µM [rising, full curve] under setting [2]. On to `CC(=O)c1c(C)[nH]c(C(=O)OCc2nnc(-c3ccccc3)o2)c1C`, for which the AC50 is 11.2 µM [rising, single point] under setting [1] and 17.8 µM [rising, single point] under setting [2]. Turning to `CCOc1ccccc1NS(=O)(=O)c1cc2[nH]c(=O)c(=O)[nH]c2cc1C`, the concentration at half-maximal activity (AC50) under setting [1] is 0.0224 µM [falling, partial curve, poor fit] and the AC50 under setting [2] is 0.02 µM [falling, partial curve, poor fit]. Turning to `CCCC/C(C)=N/NC(=O)CN(c1ccc(Br)cc1)S(=O)(=O)c1ccccc1`, the concentration at half-maximal activity (AC50) under setting [1] was 35.5 µM [rising, single point].

As for `COc1ccc(N=Cc2c(O)[nH]c3ccccc23)cc1OC`, the AC50 under setting [2] is 20 µM [rising, partial curve, poor fit]. Regarding `CCOC(=O)C1=C(CC)Nc2ccccc2N=C1NC(=O)Nc1ccc(Cl)c(Cl)c1`, under setting [2], the half-maximal activity concentration (AC50) was 35.5 µM [rising, single point]. For the compound `COc1ccc(NS(=O)(=O)c2ccc(NC(=S)NC(=O)/C=C/c3ccc(C)cc3)cc2)nn1`, under setting [2], the AC50 was 20 µM [rising, single point]. Turning to `Cc1ccc(C(=O)CSC2=C(C#N)C(c3ccco3)CC(=O)N2)c(C)c1` (stereo not given), the AC50 runs as follows: under setting [1], 11.2 µM [rising, single point]; under setting [2], 20 µM [rising, single point].

Regarding `CCOc1cc(/C=C2\SC(=Nc3ccccc3)N(c3ccccc3)C2=O)ccc1OCC(=O)O`, the AC50 is 11.2 µM [rising, partial curve] under setting [1] and 8.91 µM [rising, partial curve] under setting [2]. As for `CCOc1c(OC(C)=O)ccc(/C=C/c2ccc3cccc(OC)c3n2)c1[N+](=O)[O-]`, the AC50 under setting [2] was 14.1 µM [rising, partial curve, poor fit]. On to `CC(C)CNC(=O)C1CCN(Cc2ccc(OCc3ccccc3)cc2)CC1`, for which the AC50 is, setting by setting: under setting [1], 35.5 µM [rising, single point]; under setting [2], 35.5 µM [rising, single point]. On to `CCc1ccc(/C=C2/C(=O)N(C)C(=S)N2CC(=O)OC)s1`, for which the AC50 under setting [1] was 35.5 µM [falling, partial curve, poor fit].

Values taken from PubChem BioAssay AID1487 (National Center for Advancing Translational Sciences (NCATS), 2009).
